Data taken from publication PMC12141716, “An archaeal nucleoid-associated protein binds an essential motif in DNA replication origins” (Nature Communications, 2025).
These are yes or no findings as the source states them, for the method shown. Some results given as binding are weak or reduced against the parent protein; the word gives no strength. Sequences can lack the tags named with a protein.

Experiments:
Assay in all cases: two-hybrid; yeast, Matchmaker (Clontech), pGADT7 prey and pGBKT7 bait; growth on His plates
[1] = biological target: T1, MCM, yeast two-hybrid fusion (Sulfolobus islandicus REY15A) (UniProt F0NF15)
T1 sequence: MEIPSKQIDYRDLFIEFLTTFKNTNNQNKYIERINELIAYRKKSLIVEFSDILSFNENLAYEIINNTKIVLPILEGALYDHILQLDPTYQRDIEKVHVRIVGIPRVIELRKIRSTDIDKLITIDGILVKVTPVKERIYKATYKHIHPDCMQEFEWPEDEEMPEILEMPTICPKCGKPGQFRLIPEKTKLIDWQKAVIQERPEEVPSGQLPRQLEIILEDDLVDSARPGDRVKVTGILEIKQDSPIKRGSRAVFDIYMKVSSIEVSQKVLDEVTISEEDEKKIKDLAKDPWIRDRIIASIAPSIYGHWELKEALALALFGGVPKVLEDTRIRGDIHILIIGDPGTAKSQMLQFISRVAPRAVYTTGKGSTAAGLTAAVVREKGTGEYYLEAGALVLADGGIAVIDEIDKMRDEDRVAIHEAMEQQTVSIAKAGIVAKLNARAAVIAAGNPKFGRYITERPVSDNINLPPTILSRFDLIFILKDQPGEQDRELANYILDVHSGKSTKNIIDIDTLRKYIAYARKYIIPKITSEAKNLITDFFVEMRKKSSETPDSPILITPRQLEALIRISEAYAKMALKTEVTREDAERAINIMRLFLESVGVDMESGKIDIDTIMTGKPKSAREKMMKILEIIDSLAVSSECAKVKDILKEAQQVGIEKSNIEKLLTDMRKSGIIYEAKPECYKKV

[2] = biological target: T2, MCM A domain (residues 1-106), yeast two-hybrid fusion (Sulfolobus islandicus REY15A) (UniProt F0NF15)
T2 sequence: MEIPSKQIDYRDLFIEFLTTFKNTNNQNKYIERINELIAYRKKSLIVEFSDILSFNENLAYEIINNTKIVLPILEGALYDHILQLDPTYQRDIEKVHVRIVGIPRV

[3] = biological target: T3, MCM B/C domains (residues 107-266), yeast two-hybrid fusion (Sulfolobus islandicus REY15A) (UniProt F0NF15)
T3 sequence: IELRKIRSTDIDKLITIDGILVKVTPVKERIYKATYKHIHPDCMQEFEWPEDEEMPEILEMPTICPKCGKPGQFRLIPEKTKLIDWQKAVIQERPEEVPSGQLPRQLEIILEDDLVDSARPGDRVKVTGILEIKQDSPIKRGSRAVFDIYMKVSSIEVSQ

[4] = biological target: T4, MCM N-terminal domains (residues 1-266), yeast two-hybrid fusion (Sulfolobus islandicus REY15A) (UniProt F0NF15)
T4 sequence: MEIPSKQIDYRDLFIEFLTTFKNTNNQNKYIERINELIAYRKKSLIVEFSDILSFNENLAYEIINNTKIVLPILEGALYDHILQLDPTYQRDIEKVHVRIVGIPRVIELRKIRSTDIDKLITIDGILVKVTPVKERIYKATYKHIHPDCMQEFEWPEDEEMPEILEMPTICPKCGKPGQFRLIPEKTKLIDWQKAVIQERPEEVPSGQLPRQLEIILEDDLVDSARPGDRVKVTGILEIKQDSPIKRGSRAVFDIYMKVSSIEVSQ

Measured: binding

B1: UBP, yeast two-hybrid fusion (protein, UniProt F0NFD3 1-111)
chain: MIVMRVKVNEKQFDMIIDKLKLMVYEYNTKIKEYGVYLKPYHIVYKNSKRYIYIGKYWYKLEKIGGKLKWIYLGKTKPIQNMPNPPQIPESTIIKEDNEYIVDEKILYDLE
binds: all assays above
